In PubChem BioAssay (EPA / NIEHS) one finds AC50 and outcome data, which are given here for 1 molecule.

Chains of the proteins cited; added tags and fusions are not shown. Lines headed by an entry give the natural chain unless they say otherwise; changes in a name come on top.
UniProt P04150: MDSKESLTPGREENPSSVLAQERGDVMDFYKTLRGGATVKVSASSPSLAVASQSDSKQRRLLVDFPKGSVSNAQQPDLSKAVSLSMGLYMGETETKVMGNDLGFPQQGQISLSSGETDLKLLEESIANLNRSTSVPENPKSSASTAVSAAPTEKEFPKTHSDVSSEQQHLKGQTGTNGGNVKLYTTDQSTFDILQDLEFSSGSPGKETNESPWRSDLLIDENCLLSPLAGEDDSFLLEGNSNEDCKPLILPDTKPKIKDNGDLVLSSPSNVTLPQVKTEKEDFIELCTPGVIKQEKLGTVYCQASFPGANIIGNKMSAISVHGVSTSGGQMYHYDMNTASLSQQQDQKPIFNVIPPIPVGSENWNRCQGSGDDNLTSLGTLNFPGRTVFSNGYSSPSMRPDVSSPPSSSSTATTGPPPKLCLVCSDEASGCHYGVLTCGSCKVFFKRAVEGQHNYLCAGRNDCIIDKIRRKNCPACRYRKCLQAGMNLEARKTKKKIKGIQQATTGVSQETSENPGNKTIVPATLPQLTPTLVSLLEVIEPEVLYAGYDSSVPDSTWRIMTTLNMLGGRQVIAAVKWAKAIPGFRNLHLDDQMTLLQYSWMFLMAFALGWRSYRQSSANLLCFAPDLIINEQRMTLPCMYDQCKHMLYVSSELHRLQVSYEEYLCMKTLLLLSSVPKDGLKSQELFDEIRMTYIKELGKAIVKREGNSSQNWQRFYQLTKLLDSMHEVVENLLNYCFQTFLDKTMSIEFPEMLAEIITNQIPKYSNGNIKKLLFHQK
UniProt P23975, whole entry, looked up: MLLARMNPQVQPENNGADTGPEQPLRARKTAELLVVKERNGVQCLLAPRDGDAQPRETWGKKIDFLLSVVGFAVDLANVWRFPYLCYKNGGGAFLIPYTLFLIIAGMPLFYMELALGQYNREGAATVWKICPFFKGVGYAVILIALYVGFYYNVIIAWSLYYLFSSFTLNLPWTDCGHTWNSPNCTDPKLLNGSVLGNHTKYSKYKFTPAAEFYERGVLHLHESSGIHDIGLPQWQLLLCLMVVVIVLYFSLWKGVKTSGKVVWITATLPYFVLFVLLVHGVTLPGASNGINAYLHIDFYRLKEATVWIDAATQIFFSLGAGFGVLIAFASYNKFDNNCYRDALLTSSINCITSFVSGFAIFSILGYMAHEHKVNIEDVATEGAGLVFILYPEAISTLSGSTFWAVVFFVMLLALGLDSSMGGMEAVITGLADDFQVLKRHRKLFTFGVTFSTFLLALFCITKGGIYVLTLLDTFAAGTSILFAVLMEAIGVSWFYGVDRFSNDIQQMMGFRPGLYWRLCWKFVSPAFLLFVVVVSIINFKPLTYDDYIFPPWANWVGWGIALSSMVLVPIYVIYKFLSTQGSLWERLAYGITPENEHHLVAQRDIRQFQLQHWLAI
UniProt P19793: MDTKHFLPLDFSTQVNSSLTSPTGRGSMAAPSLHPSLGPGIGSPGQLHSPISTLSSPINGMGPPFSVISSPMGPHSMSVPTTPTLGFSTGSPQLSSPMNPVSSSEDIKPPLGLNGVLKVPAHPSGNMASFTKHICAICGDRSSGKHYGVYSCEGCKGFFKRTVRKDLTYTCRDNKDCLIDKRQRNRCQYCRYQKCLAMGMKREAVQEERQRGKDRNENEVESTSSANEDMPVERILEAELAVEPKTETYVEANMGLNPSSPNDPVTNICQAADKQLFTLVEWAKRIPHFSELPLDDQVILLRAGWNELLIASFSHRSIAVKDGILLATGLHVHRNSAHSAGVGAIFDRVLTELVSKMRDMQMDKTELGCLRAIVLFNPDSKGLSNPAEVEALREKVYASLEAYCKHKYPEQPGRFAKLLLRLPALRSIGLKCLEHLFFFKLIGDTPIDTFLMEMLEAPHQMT
UniProt P37231: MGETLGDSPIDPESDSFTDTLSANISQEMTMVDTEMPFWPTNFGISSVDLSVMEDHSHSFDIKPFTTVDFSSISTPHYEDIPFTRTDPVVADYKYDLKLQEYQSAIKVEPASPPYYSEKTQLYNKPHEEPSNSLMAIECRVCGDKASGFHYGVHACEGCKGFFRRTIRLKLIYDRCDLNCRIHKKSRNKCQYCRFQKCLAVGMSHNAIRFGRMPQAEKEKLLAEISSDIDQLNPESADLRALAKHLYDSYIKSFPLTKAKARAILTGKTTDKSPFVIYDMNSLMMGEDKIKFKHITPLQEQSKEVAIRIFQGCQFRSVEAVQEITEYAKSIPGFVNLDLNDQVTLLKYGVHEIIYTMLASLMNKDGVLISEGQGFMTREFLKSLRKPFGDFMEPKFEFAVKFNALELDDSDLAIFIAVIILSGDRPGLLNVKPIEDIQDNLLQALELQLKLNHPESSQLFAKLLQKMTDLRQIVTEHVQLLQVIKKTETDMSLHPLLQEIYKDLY
UniProt P33261, whole entry, looked up: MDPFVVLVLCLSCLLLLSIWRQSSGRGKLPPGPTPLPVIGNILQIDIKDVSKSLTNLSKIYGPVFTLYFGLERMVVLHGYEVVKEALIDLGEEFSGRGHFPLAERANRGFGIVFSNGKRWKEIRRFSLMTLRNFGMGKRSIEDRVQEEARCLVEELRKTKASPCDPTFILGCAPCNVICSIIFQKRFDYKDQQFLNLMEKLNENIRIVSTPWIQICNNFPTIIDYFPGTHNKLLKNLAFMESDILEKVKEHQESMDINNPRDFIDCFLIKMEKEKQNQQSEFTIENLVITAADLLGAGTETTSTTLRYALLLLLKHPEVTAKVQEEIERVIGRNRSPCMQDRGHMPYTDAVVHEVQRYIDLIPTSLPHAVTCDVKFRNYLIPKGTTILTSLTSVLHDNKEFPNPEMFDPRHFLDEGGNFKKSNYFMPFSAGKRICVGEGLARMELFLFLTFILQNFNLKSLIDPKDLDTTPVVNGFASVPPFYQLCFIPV
UniProt Q5TCH4: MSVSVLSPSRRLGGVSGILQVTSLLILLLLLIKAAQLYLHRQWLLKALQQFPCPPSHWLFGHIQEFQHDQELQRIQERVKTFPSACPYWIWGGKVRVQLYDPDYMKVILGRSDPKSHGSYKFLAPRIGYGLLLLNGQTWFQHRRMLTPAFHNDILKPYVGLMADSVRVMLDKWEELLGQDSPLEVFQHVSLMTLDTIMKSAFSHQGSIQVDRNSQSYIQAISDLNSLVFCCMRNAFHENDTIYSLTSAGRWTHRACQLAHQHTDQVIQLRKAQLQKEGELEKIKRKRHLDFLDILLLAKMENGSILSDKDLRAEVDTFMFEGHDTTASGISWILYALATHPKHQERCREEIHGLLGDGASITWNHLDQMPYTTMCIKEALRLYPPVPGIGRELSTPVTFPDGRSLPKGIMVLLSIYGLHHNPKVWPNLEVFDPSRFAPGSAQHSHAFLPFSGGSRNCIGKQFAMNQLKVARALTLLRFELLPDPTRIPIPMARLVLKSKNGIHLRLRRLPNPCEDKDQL
UniProt P08659, whole entry, looked up: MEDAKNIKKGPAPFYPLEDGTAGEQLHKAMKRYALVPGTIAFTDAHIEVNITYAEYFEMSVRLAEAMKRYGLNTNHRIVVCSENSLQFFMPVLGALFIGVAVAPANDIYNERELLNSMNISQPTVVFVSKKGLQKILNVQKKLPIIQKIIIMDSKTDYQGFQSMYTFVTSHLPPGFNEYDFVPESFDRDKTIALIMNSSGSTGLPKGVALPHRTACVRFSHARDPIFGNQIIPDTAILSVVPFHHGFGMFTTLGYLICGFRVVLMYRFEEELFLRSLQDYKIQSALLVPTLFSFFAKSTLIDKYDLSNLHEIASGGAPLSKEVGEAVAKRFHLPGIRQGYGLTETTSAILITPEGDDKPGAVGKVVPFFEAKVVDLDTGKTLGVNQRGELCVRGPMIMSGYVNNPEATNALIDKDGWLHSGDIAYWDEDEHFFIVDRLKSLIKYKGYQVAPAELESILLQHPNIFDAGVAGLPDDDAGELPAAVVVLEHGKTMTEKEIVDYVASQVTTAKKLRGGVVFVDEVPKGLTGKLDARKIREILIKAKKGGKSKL

For some assays here: Most of the hits are listed elsewhere, so they are rarer here than in the full data. Inconclusive results are not listed. The entries are a selection whose mix differs from that of the whole data set. The source holds several records for some structures; these can differ, active in one and inactive in another. Activity calls are given as the source filed them. How the source made its calls, unless noted: active means hit-call score of the fitted dose curve at least 0.9, where 1 is the maximum; inactive means score below 0.9.

For orientation: AC50 means the concentration giving half of the maximal activity seen.

For assay [1], the target named is Glucocorticoid receptor (Homo sapiens) (UniProt P04150). Briefly: NVS_NR_hGR: NovaScreen (NVS) Nuclear Receptor Binding Assay for human Glucocorticoid Receptor (GR) (AID 2283363; active means hit-call score of the fitted dose curve at least 0.9, where 1 is the maximum;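 further: activity is loss of specific radioligand binding signal relative to DMSO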). The method, boiled down: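 Cell-free radioligand displacement assay on extracted human GR, read 16 h after dosing by filter-based scintillation counting. Screened in duplicate at 25 uM, then concentration series for actives; loss of signal versus DMSO baseline.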

For assay [2], the target named is human Norepinephrine Transporter (NET), SLC6A2 (gene 6530) (UniProt P23975). As to the kind of experiment: NVS_TR_hNET: NovaScreen (NVS) Transporter Assay for human Norepinephrine Transporter (NET) (AID 2283377; active means hit-call score of the fitted dose curve at least 0.9, where 1 is the maximum;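 further: displacement of radioligand from human NET seen as loss of scintillation signal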). The method, boiled down:
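Cell-free radioligand binding using CHO-derived membrane protein expressing human NET, read by filter scintillation counting 1 h after dosing; loss of signal vs DMSO. Initial duplicate screen at 25 uM, actives retested in concentration series.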

Assay [3] deals with Retinoic acid receptor RXR-alpha (Homo sapiens) (UniProt P19793). As to the kind of experiment: OT_NURR1_NURR1RXRa_0480: Odyssey Thera (OT) 8-hour HEK293T Protein Complementation Assay for Nurr1/retinoid X receptor (RXR) (AID 2283385; active means hit-call score of the fitted dose curve at least 0.9, where 1 is the maximum). The essentials:
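HEK293T cells expressing Nurr1 and RXRα fused to reporter fragments (protein-fragment complementation); fluorescence measured 8 h after dosing. Gain of signal fitted relative to DMSO.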

The target in assay [4] is Peroxisome proliferator-activated receptor gamma (Homo sapiens) (UniProt P37231). Briefly: OT_PPARg_PPARgSRC1_1440: Odyssey Thera (OT) 24-hour Protein-Complementation Assay for Peroxisome Proliferator-activated Receptor Gamma/ SRC-1 Co-activator (AID 2283388; active means hit-call score of the fitted dose curve at least 0.9, where 1 is the maximum;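 further: nuclear to cytoplasmic ratio of reconstituted Venus YFP fluorescence in fixed imaged cells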). The essentials:
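Cells carrying the PPARg/SRC-1 fragment-complementation reporter receive compound for 24 hours, are fixed and counterstained with Draq5, then imaged. Increased nuclear relative to cytoplasmic YFP fluorescence above DMSO baseline indicates binding activity.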

Read-out in assay [5]: Cytochrome P450 (CYP1A1), CYP1A1 (gene 1543)
Briefly: LTEA_HepaRG_CYP1A1: Life Technologies and Expression Analysis (LTEA) Assay for Cytochrome P450 (CYP1A1) using HepaRG (AID 2283454). The following applies: actives raise or lower the signal; mRNA level, 48 h. The method, boiled down:
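Using HepaRG cultures with 0.5% DMSO as vehicle, eight-concentration exposures (max 100 uM) lasted 48 h. Transcript levels were measured by TaqMan qRT-PCR and normalized to ACTB, GAPDH and POLR2A.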

Read-out in assay [6]: Bcl-2 (BAD) gene, BAD (gene 572)
Briefly: LTEA_HepaRG_BAD: Life Technologies and Expression Analysis (LTEA) Assay for Bcl-2 (BAD) gene using HepaRG (AID 2283469). The following applies: actives raise or lower the signal; mRNA level, 48 h. The method, boiled down: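 Differentiated HepaRG cells were exposed in duplicate in 0.5% DMSO for 48 h to eight-point half-log concentrations up to 100 uM. BAD mRNA was measured by Fluidigm TaqMan qRT-PCR, normalized to ACTB, GAPDH and POLR2A, and fitted bidirectionally against DMSO.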

Read-out in assay [7]: Alpha-fetoprotein (AFP) gene, AFP (gene 174)
Briefly: LTEA_HepaRG_AFP: Life Technologies and Expression Analysis (LTEA) Assay for Alpha-fetoprotein (AFP) gene using HepaRG (AID 2283472). The following applies: actives raise or lower the signal; mRNA level, 48 h.

Read-out in assay [8]: Cytochrome P450 2C19 (Homo sapiens) (UniProt P33261)
As to the kind of experiment: LTEA_HepaRG_CYP2C19: Life Technologies and Expression Analysis (LTEA) Assay for CYP2C19 using HepaRG (AID 2283482). The following applies: actives raise or lower the signal; mRNA level, 48 h. The method, boiled down: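 Endpoint: CYP2C19 mRNA change, bidirectional fit vs 0.5% DMSO. Cells: HepaRG, 48 h exposure, eight-point series topping at 100 uM. Quantitation: qRT-PCR normalized to ACTB, GAPDH, POLR2A.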

Read-out in assay [9]: Cytochrome P450 4A22 (Homo sapiens) (UniProt Q5TCH4)
Briefly: LTEA_HepaRG_CYP4A22: Life Technologies and Expression Analysis (LTEA) Assay for Cytochrome P450 4A22 (CYP4A22) using HepaRG (AID 2283495). The following applies: actives raise or lower the signal; mRNA level, 48 h. The essentials:
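Concentration-response (8 points, max 100 uM, 0.5% DMSO) in human HepaRG liver cells after 48 h exposure. CYP4A22 mRNA by TaqMan qRT-PCR with housekeeping-gene normalization.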

Read-out in assay [10]: matrix metalloproteinase-10 (MMP10), MMP10 (gene 4319)
Briefly: LTEA_HepaRG_MMP10: Life Technologies and Expression Analysis (LTEA) Assay for matrix metalloproteinase-10 (MMP10) using HepaRG (AID 2283517). The following applies: actives raise or lower the signal; mRNA level, 48 h. The essentials: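 Differentiated HepaRG cells in serum-free induction medium exposed 48 h in duplicate to 8-point half-log series up to 100 uM in 0.5% DMSO. mRNA quantified by qRT-PCR, normalised to ACTB, GAPDH, POLR2A; bidirectional fit versus DMSO.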

Read-out in assay [11]: Protein phosphatase 2A (PPP2R4), PTPA (gene 5524)
Briefly: LTEA_HepaRG_PPP2R4: Life Technologies and Expression Analysis (LTEA) Assay for Protein phosphatase 2A (PPP2R4) using HepaRG (AID 2283522). The following applies: actives raise or lower the signal; mRNA level, 48 h. The essentials: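 Differentiated human HepaRG cells in serum-free induction medium were exposed 48 h to 8 concentrations (top 100 µM, half-log steps, duplicate) in 0.5% DMSO. PPP2R4 mRNA was measured by TaqMan qRT-PCR, normalised to ACTB, GAPDH and POLR2A, and fitted bidirectionally versus DMSO.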

Read-out in assay [12]: UDP glucuronosyltransferase (UGT1A6), UGT1A6 (gene 54578)
Briefly: LTEA_HepaRG_UGT1A6: Life Technologies and Expression Analysis (LTEA) Assay for UDP glucuronosyltransferase (UGT1A6) using HepaRG (AID 2283539). The following applies: actives raise or lower the signal; mRNA level, 48 h. The method, boiled down:
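Measures mRNA change in HepaRG hepatic cells exposed 48 h to chemicals (eight-point, maximum 100 uM, 0.5% DMSO vehicle) in serum-free induction medium. Expression normalized to endogenous controls; DMSO served as negative control and baseline.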

Read-out in assay [13]: X-box binding protein 1 (XBP1), XBP1 (gene 7494)
Briefly: LTEA_HepaRG_XBP1: Life Technologies and Expression Analysis (LTEA) Assay for X-box binding protein 1 (XBP1) using HepaRG (AID 2283540). The following applies: actives raise or lower the signal; mRNA level, 48 h. The essentials:
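Eight concentrations (half-log, highest 100 uM, 0.5% DMSO) tested in duplicate on HepaRG cells over 48 h in serum-free induction medium; qRT-PCR of XBP1 normalised to ACTB, GAPDH, POLR2A.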

Assay [14] in a line: ATG_XTT_Cytotoxicity: Cytotoxicity Assessment in the Attagene TRANS-FACTORIAL HepG2 Assay (AID 2283584; active means hit-call score of the fitted dose curve at least 0.9, where 1 is the maximum). The essentials: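 24 h chemical exposure of reporter-transfected HepG2; XTT signal loss vs DMSO indicates cytotoxicity.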
Read-out in assay [15]: matrix metalloproteinase-1 (MMP1), MMP1 (gene 4312)
Briefly: LTEA_HepaRG_MMP1: Life Technologies and Expression Analysis (LTEA) Assay for matrix metalloproteinase-1 (MMP1) using HepaRG (AID 2283658). The following applies: actives raise or lower the signal; mRNA level, 48 h. The essentials: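 In this screen, human liver HepaRG cultures receive each chemical in duplicate for 48 h (top 100 uM, 0.5% DMSO). MMP1 expression is then quantified by TaqMan qRT-PCR with ACTB/GAPDH/POLR2A normalization.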

In assay [16] the test system is Thyroperoxidase (TPO), gene 54314. As to the kind of experiment: CCTE_Simmons_AUR_rTPO: CCTE's Amplex UltraRed Assay for Thyroperoxidase (TPO) Inhibition, Simmons Lab (AID 2283662; active means hit-call score of the fitted dose curve at least 0.9, where 1 is the maximum;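 further: potency for loss of signal meaning inhibition of peroxidase activity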). The essentials: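 Cell-free peroxidase activity assay using rat thyroid gland microsomes with excess H2O2 (300 uM) and 25 uM Amplex UltraRed. Compounds tested from 5 nM to 87.5 uM; fluorescence measured after 30 min at 37C, analysed relative to DMSO baseline.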

Assay [17] deals with Luciferin 4-monooxygenase (Photinus pyralis) (UniProt P08659). Briefly: CCTE_Simmons_QuantiLum_inhib_2: CCTE's Firefly Luciferase Inhibition Assay, Simmons Lab (AID 2283767; active means hit-call score of the fitted dose curve at least 0.9, where 1 is the maximum;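 further: potency for inhibitors that lower luciferase luminescence relative to DMSO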). The essentials:
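Cell-free recombinant firefly luciferase (5 ng/well) in 200mM potassium phosphate with 1 mg/ml BSA, 30 min at 37C with 8 concentrations from 5 nM to 87.5 uM [final], 0.5% DMSO. Luminescence read after D-luciferin (150uM)/dATP (147uM) reagent injection, pH 7.8; triplicates.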

The subject of assay [18] is Sodium/Iodide Symporter (NIS), SLC5A5 (gene 6528). Briefly: CPHEA_Stoker_NIS_Inhibition_RAIU: CPHEA's Radioactive Iodide Uptake (RAIU) Assay for Sodium/Iodide Symporter (NIS) Inhibition, Stoker and Laws Labs (AID 2283841; active means hit-call score of the fitted dose curve at least 0.9, where 1 is the maximum). The method, boiled down: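 Iodide uptake through human NIS is measured in an engineered HEK293T line. Cells take up 125I (329pM final) for 2 hours at room temperature alongside chemicals at 0.001–100uM. Retained radioactivity is counted, and the signal is expressed against DMSO controls.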

Assay [19] is described as follows: CCTE_Shafer_MEA_dev_per_burst_spike_percent: CCTE's Neural Network Formation Assay for Percent of Spikes in a Burst, Shafer Lab (AID 2284032). The method, boiled down:
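Rat primary cortical neurons on 16-electrode MEA wells, dosed from plating day 0 for 12 days with renewal on DIV 5 and 9; spikes-in-bursts percentage averaged over bursting electrodes, collapsed as AUC across days 5, 7, 9, 12; loss direction versus DMSO.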

A short description of assay [20]: CCTE_Shafer_MEA_dev_interburst_interval_mean: CCTE's Neural Network Formation Assay for Mean Interburst Interval, Shafer Lab (AID 2284046).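 Further: well-mean interburst interval of bursting electrodes as AUC over four recording days; curve fitted for decrease in interburst interval relative to DMSO.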 The method, boiled down:
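Developing rat cortical networks on 48-well MEAs receive compound from the day of plating. Burst intervals from each active electrode are averaged per well, and AUC over the recording days is fitted in the negative direction against DMSO.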

As to `S=C(S)NCCNC(=S)S.[Mn+2].[S-]C([S-])=NCCN=C([S-])[S-].[Zn+2]`, the AC50 in assay [1] is active: 5750 nM; in assay [2], active: 2480 nM; in assay [5], active: 211 nM; in [6], active: 378 nM; in assay [7], active: 1020 nM; in assay [8] it was active: 3320 nM. In addition, the AC50 in assay [9] was active: 1150 nM; in assay [10], active: 706 nM; in assay [11] it was active: 1180 nM; in assay [12], active: 1460 nM; in assay [13] it was active: 1440 nM; in assay [16] it was active: 21900 nM. For the same molecule, the AC50 in [17] is active: 18500 nM. Moreover, the molecule was classed as inactive in assay [3], in assay [4], in [14], in assay [15], in assay [18] and in assay [19]. Further, the molecule was classed as inactive in [20].
